Source: the supplement of paper PMC8728848
The list shows a part of the results.

Tests used:
[1] = target: Neu5Gc(a2-8)Neu5Gc(a2-6)Gal(b1-4)GlcNAc; test: glycan array binding signal (z-score within array); higher = stronger binding; details: glycan notation: IUPAC condensed, linker removed
In short: (§1)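 The Consortium for Functional Glycomics database supplied 3228 glycan arrays, of which those lacking an available protein sequence were dropped. The binding signal, a within-array Z-score, was averaged across arrays of the same protein sequence and across linkers. Negative scores can be read as non-binding.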

[2] = target: Neu5Gc(b2-6)Gal(b1-4)GlcNAc; test: as above; details: glycan notation: IUPAC condensed, linker removed
In short: as §1

B1: RobpsCRA (Robinia pseudoacacia) (protein)
chain: IKGGYWYSGSGLAVSDINPSHFTHLFCAFADLDPNTNKLTISSSNAAAFSTFTQTVRAKNPSVKTLLSIGGGGGRALAAVFANMASQASRRKSFIDSSIQLARRNNFHGLDLDWEYPSSDIDKTNFASLIREWRAAVATESSTSGTPALLLSAAVGGSDQITPLKYYPGEAIANNLDWVNVMTYDLYTSDSYPTLTQPPAPLFYPRGIFSADEGITKWIQSGVPESKLALGLPFYGFKWRLSDPNNHGLFAPATQGLGAVKYKDIVNTGGQVEFDSTYVTNYCFKGTDWYGYDDTQSISAKVAYAKQRGLFGYFAWHIEQDSNWALS
glycan array binding signal (z-score) [1]: -0.207
glycan array binding signal (z-score) [2]: 0.331
